This passage reports aggregation ratio results from PubChem BioAssay.

The chains behind the UniProt entries cited, without tags or fusion partners.
UniProt P42858, whole entry, looked up: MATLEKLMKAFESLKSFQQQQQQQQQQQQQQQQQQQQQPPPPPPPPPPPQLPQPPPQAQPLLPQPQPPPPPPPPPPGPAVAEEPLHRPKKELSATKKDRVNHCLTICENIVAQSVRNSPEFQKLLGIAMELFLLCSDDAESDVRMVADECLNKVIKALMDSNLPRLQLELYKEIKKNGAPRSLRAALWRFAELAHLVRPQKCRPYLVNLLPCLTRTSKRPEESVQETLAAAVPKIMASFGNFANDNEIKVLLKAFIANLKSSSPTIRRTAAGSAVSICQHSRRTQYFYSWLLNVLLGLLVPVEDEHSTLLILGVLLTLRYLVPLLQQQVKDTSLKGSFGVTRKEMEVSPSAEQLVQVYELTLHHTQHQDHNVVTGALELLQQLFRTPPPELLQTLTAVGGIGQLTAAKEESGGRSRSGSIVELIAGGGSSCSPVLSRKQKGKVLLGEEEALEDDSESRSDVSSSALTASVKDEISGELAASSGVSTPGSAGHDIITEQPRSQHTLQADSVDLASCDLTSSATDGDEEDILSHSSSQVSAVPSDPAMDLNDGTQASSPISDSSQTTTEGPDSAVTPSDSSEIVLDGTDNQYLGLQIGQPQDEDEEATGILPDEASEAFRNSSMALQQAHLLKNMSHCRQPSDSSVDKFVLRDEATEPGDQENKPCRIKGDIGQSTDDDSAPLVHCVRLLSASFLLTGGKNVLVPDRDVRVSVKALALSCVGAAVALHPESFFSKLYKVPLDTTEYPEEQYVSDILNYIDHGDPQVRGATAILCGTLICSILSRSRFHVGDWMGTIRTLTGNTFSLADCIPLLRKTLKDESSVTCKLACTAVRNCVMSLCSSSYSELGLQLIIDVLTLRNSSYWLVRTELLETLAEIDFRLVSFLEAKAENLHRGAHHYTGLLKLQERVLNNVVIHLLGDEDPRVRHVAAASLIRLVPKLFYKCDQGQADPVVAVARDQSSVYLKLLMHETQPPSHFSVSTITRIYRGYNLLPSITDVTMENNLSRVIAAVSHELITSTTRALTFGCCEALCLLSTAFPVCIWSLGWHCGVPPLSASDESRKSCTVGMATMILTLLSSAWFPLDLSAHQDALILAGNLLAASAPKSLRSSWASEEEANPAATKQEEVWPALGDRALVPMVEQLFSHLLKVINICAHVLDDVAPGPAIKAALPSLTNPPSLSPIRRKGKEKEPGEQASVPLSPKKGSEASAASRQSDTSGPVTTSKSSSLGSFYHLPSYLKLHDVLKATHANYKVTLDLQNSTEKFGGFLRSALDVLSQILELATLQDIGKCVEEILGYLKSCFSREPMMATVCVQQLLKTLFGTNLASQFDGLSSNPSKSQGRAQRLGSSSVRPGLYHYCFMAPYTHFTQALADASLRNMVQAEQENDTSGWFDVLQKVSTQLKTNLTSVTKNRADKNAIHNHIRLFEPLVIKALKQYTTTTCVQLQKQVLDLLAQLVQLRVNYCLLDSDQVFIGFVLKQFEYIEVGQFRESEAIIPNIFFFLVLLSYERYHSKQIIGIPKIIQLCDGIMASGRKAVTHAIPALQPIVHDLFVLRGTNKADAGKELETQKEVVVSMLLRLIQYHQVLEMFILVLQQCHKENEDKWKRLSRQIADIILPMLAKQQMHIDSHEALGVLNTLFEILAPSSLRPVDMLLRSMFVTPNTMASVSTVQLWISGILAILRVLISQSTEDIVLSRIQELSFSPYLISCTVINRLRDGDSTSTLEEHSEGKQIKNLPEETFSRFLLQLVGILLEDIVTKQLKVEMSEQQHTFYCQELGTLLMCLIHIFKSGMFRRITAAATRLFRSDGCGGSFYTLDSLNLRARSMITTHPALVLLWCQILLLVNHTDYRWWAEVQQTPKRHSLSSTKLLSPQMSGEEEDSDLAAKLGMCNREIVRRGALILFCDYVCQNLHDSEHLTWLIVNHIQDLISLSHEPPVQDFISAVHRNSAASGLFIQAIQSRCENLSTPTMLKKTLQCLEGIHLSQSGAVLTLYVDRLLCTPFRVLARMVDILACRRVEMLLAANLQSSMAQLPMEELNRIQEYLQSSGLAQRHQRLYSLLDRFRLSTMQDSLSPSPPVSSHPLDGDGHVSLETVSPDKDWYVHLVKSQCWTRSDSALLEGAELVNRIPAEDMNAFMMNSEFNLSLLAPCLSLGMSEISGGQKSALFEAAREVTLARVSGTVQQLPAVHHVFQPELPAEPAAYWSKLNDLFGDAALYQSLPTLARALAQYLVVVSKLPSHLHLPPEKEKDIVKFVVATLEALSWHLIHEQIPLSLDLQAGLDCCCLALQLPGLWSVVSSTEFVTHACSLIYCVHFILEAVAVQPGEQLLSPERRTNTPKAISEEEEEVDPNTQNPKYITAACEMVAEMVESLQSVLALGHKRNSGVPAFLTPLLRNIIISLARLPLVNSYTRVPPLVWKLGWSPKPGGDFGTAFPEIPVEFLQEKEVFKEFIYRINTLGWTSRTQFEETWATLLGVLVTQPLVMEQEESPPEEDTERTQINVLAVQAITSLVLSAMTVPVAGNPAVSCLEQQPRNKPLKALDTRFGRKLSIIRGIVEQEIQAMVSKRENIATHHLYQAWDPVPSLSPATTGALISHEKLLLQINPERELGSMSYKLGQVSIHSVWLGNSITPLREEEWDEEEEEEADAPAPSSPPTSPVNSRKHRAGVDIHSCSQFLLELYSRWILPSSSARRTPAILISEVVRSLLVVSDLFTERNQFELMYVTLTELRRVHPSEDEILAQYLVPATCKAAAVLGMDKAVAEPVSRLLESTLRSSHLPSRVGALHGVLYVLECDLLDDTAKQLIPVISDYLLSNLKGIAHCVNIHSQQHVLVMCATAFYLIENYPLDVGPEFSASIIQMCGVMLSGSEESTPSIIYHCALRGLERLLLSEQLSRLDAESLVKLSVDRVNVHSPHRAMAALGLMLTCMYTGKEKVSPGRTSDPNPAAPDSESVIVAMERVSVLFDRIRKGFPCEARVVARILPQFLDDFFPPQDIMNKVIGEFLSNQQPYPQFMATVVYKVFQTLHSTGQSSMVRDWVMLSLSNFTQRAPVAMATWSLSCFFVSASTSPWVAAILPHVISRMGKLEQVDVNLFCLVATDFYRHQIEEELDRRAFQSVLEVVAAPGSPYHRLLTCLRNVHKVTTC

Values joined by “and” are separate entries in the source; they are usually repeats but may differ in a detail not shown here. Equal values may be shown once. This is one part of the list. Entries without a call are filed as inconclusive in the source. Residues, ends and D or L forms follow the SMILES beside them. *: point of attachment. For = O=C*

In this experiment the target is Huntingtin (Homo sapiens) (UniProt P42858). The experiment can be described thus: inhibitors of mutant Htt aggregation in vitro, dose response, QA1 (AID 1584). Particulars: in vitro mutant huntingtin aggregation assay; at 100 µM.
Turning to `NC[C@@H]1O[C@H](O[C@@H]2[C@@H](CO)OC(O[C@@H]3[C@@H](O)[C@H](N)C[C@H](N)[C@H]3OC3O[C@H](CO)[C@@H](O)[C@H](O)[C@H]3N)[C@@H]2O)[C@H](N)[C@@H](O)[C@@H]1O` (some centres undefined), the aggregation ratio is 1.01.

As to `CC1(C)O[C@@H]2CC3C4C[C@H](F)C5=CC(=O)CC[C@]5(C)C4[C@@H](O)C[C@]3(C)[C@]2(C(=O)CO)O1` (some centres undefined), the aggregation ratio amounted to 1.1.

Consider `CCCOc1ccccc1-c1nc2n[nH]nc2c(=O)[nH]1`, for which the aggregation ratio is 0.892.

For `Nc1ncnc2c1ncn2[C@@H]1O[C@H](CO)[C@@H](O)[C@@H]1O`, the aggregation ratio was 1.14.

For the compound `CO[C@@]1(NC(=O)Cc2cccs2)C(=O)N2C(C(=O)O)=C(COC(N)=O)CS[C@@H]21`, the aggregation ratio turned out to be 0.886.

`O=C(O)c1ccccc1Nc1cccc(C(F)(F)F)c1`: the aggregation ratio was determined as 1.08.

For the compound `CN(C)CCOC(=O)COc1ccc(Cl)cc1`, the aggregation ratio amounted to 0.982.

With `CCn1cc(C(=O)O)c(=O)c2cnc(N3CCNCC3)nc21`, the aggregation ratio was 1.09.

Turning to `CC(=O)NO`, the aggregation ratio is 1.12.

For `CSCCC(NC=O)C(=O)NC(CC(C)C)C(=O)NC(Cc1ccccc1)C(=O)O` (centres undefined), the aggregation ratio was found to be 0.913.

As to `CO[C@H]1/C=C/O[C@@]2(C)Oc3c(C)c(O)c4c(O)c(c(C=NN5CCN(C)CC5)c(O)c4c3C2=O)NC(=O)/C(C)=C\C=C\C(C)[C@H](O)[C@@H](C)[C@@H](O)[C@@H](C)[C@@H](OC(C)=O)[C@@H]1C` (some centres undefined), the aggregation ratio was determined as 1.17.

For `C[N+](C)(C)CCCCCC[N+](C)(C)C`, the aggregation ratio came out at 0.984.

Turning to `CCN(CC)CCNC(=O)c1ccc(N)cc1`, the aggregation ratio came to 0.834.

In the case of `O=C(Cn1ccnc1[N+](=O)[O-])NCCO`, the aggregation ratio came out at 1.19.

`Cc1onc(-c2ccccc2)c1C(=O)NC1C(=O)N2[C@@H]1SC(C)(C)[C@@H]2C(=O)O` (some centres undefined): the aggregation ratio is 0.779.

On to `O=C(COc1ccc(Cl)cc1)N1CCN(Cc2ccc3c(c2)OCO3)CC1`, for which the aggregation ratio stood at 1.18.

`NC(=O)c1cnccn1`: the aggregation ratio was determined as 1.08.

As for `CC1=C2C(=CO[C@H](C)[C@H]2C)C(=O)C(C(=O)O)=C1O`, the aggregation ratio was found to be 0.754.

`O=C(O)c1cc(=O)c2ccccc2o1`: the aggregation ratio worked out at 0.953.

Consider `COc1ccc2c3c1O[C@H]1C[C@@H](O)C=C[C@@]31CCN(C)C2`, for which the aggregation ratio was found to be 1.18.

Turning to `CCN(CC)CCOc1ccc2c(c1)C(=O)c1cc(OCCN(CC)CC)ccc1-2`, the aggregation ratio was determined as 1.27.

On to `C=C(C)[C@H]1CC=C(C(=O)O)CC1`, for which the aggregation ratio was determined as 1.1.

Take `CC(=O)OCC[N+](C)(C)C`: the aggregation ratio worked out at 0.772.

In the case of `Oc1cccc(O)c1`, the aggregation ratio was 1.08.

On to `COc1ccc([C@@H]2CC(=O)c3c(O)cc(O)cc3O2)cc1O`, for which the aggregation ratio came out at 0.886.

Regarding `CC(C[N+](C)(C)C)OC(N)=O` (centres undefined), the aggregation ratio came to 0.926.

In the case of `N=c1nc(N2CCCCC2)cc(N)n1O`, the aggregation ratio stood at 1.06.

Regarding `CC[C@H]1OC(=O)[C@H](C)[C@@H](O[C@H]2C[C@@](C)(OC)[C@@H](O)[C@H](C)O2)[C@H](C)[C@@H](O[C@@H]2O[C@H](C)C[C@H](N(C)C)[C@H]2O)[C@](C)(O)C[C@@H](C)C(=O)[C@H](C)[C@@H](O)[C@]1(C)O`, the aggregation ratio was 0.702 and 1.27 and 1.01.

Regarding `CSCCC(NC=O)C(=O)NC(Cc1ccccc1)C(=O)O` (stereo not drawn) (For-Met-Phe-OH; configuration not given here), the aggregation ratio came out at 0.886.

Consider `CC(=O)N[C@@H](Cc1c[nH]c2ccccc12)C(=O)O`, for which the aggregation ratio came to 0.974.

Regarding `CC1=NN(c2ccccc2)C(=O)C1`, the aggregation ratio came to 0.945.

Turning to `CN=C(NC#N)NCCSCc1nc[nH]c1C`, the aggregation ratio was found to be 0.987.

In the case of `Nc1ccc(C(=O)O)c(O)c1`, the aggregation ratio was 1.1.

Take `NC(=O)NO`: the aggregation ratio was determined as 1.17.

Turning to `CC[C@]12CCCN3CCc4c(n(c5ccccc45)[C@](O)(C(=O)OC)C1)[C@@H]32`, the aggregation ratio came out at 1.06.

As to `CCCC(C(=O)OCCN(CC)CC)(c1ccccc1)c1ccccc1`, the aggregation ratio was 1.09.

With `CCC[C@@H]1C[C@@H](C(=O)NC(C(C)Cl)C2O[C@H](SC)[C@H](O)[C@@H](O)[C@H]2O)N(C)C1` (some centres undefined), the aggregation ratio was found to be 0.902.

Regarding `CC(=O)Oc1cccc(O)c1`, the aggregation ratio is 1.14.

As to `CCCN(CCC)S(=O)(=O)c1ccc(C(=O)O)cc1`, the aggregation ratio was 1.01.
